According to the supplement of paper PMC10849652:
The other results are listed elsewhere or left out.

Amino acid sequences for entries named in this document (tags omitted). A change or cut given only in a name is not applied to a line headed by its entry.
UniProt Q8N0X7: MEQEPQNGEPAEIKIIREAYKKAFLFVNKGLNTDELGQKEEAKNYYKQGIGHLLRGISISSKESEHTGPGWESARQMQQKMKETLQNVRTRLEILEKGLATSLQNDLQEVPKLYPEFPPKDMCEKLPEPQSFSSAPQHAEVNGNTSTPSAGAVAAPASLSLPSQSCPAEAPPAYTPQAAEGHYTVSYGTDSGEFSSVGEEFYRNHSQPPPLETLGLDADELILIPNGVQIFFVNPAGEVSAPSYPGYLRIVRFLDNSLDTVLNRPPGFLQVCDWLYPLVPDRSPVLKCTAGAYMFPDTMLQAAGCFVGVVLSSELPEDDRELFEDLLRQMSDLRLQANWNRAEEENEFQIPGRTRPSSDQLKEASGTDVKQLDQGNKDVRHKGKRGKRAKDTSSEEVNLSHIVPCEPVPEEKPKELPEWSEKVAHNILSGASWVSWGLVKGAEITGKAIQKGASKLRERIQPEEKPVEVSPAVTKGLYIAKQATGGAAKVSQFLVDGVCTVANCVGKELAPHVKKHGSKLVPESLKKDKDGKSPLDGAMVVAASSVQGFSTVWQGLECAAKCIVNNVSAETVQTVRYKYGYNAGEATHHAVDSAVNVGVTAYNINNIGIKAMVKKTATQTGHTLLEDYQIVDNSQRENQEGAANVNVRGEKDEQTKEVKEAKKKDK
UniProt Q05519: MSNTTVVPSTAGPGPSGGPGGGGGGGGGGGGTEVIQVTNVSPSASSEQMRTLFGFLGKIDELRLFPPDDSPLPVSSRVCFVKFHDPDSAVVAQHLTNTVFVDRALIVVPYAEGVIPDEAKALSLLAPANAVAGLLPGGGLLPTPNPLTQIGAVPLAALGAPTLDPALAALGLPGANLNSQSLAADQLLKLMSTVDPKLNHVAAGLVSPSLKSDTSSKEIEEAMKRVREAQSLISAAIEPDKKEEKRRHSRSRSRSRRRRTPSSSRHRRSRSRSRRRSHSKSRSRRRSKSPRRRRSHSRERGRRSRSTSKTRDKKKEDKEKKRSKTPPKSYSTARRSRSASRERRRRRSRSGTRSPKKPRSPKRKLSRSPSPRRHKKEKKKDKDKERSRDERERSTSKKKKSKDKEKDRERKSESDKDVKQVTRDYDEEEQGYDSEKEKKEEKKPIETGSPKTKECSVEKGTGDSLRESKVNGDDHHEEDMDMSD
UniProt Q13586, whole entry, looked up: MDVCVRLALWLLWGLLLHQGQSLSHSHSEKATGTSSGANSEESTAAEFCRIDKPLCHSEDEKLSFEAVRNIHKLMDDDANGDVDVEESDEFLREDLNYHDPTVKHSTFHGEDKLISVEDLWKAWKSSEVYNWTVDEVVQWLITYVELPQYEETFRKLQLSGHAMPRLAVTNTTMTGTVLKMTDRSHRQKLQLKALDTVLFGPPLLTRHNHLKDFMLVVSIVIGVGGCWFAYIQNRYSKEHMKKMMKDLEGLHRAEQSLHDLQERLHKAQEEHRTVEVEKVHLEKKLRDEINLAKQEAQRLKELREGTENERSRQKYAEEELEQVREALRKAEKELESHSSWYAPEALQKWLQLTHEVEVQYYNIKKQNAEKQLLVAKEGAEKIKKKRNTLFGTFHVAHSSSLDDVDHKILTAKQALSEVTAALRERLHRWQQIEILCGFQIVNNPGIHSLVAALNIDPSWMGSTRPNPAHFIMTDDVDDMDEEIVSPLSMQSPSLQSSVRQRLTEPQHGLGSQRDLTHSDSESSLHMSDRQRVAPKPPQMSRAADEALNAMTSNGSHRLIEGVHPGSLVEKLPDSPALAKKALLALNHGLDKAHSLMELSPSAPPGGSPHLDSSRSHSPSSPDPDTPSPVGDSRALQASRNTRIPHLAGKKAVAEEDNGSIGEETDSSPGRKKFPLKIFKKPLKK
UniProt Q16629: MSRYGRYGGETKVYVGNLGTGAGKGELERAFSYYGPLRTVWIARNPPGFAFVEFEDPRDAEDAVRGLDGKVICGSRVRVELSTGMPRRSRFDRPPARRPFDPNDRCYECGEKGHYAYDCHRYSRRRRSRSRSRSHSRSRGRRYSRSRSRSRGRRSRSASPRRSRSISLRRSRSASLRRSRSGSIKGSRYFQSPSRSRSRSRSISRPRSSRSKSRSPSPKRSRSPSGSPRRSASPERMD
UniProt O00506, whole entry, looked up: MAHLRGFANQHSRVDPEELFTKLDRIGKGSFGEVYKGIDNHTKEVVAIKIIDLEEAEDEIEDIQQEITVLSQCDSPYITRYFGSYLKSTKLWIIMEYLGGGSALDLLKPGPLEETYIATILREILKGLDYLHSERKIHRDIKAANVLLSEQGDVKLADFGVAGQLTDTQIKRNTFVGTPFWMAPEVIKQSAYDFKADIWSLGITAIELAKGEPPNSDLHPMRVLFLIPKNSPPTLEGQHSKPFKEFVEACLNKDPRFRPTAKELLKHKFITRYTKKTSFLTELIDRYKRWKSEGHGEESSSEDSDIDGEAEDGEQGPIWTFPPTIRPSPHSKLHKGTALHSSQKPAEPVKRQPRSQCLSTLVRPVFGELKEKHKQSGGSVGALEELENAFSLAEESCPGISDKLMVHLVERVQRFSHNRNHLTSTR
UniProt Q9UQ90: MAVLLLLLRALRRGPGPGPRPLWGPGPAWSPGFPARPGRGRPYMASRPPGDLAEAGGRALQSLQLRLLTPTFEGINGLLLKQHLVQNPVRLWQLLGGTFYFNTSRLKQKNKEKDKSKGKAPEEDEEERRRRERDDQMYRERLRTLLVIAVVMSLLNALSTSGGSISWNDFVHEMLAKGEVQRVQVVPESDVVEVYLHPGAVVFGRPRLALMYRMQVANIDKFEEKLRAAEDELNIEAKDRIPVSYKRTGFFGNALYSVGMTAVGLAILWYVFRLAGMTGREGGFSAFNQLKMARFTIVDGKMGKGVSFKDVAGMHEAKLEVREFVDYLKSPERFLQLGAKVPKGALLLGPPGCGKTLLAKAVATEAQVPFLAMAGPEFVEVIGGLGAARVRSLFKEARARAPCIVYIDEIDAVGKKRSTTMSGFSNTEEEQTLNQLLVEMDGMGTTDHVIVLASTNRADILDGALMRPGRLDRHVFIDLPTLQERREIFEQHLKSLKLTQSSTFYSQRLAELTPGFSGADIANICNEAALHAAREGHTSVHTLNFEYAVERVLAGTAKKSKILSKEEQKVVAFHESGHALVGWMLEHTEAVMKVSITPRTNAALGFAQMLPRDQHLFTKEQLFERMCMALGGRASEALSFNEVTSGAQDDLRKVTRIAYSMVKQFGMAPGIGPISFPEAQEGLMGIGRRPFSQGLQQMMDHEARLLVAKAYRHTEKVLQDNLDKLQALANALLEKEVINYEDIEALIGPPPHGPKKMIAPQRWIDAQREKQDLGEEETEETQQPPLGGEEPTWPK
UniProt O43805: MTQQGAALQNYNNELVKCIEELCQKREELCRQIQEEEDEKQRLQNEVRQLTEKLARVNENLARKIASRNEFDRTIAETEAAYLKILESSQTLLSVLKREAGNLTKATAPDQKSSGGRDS
UniProt P51692: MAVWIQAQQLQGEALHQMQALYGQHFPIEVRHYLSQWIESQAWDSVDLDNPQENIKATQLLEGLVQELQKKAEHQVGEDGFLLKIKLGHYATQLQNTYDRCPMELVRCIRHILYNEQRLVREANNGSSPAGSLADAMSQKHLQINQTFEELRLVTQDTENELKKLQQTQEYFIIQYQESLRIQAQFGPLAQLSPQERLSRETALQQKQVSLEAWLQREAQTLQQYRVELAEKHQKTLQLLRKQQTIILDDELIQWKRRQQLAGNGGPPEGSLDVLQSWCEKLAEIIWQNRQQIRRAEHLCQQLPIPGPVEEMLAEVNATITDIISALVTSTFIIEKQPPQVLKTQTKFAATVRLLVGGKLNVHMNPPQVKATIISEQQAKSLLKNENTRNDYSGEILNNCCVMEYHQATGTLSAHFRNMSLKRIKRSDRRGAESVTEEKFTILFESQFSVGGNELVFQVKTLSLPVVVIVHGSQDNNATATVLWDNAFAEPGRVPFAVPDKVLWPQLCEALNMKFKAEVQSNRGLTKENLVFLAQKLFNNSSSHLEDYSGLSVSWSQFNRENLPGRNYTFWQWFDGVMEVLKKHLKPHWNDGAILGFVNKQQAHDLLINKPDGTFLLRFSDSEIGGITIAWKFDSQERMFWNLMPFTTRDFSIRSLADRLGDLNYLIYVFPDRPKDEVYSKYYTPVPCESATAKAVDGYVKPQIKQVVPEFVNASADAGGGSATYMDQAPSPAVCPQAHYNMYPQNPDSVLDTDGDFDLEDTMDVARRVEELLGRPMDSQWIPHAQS
UniProt O95793: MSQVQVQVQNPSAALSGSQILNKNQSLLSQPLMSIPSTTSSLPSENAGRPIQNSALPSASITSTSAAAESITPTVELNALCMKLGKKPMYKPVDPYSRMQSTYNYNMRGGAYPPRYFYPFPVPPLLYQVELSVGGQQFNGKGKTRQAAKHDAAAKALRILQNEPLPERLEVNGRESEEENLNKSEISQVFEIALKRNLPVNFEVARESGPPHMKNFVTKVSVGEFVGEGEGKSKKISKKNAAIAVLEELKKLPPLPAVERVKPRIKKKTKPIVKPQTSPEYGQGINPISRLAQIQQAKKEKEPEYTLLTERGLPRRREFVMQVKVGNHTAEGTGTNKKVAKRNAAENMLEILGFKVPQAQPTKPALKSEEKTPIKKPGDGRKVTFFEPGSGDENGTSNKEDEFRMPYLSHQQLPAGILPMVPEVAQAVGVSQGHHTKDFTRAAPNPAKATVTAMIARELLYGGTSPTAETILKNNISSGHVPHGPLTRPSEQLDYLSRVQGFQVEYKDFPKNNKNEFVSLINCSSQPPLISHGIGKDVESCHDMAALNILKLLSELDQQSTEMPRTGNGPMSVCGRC
UniProt Q8NB90: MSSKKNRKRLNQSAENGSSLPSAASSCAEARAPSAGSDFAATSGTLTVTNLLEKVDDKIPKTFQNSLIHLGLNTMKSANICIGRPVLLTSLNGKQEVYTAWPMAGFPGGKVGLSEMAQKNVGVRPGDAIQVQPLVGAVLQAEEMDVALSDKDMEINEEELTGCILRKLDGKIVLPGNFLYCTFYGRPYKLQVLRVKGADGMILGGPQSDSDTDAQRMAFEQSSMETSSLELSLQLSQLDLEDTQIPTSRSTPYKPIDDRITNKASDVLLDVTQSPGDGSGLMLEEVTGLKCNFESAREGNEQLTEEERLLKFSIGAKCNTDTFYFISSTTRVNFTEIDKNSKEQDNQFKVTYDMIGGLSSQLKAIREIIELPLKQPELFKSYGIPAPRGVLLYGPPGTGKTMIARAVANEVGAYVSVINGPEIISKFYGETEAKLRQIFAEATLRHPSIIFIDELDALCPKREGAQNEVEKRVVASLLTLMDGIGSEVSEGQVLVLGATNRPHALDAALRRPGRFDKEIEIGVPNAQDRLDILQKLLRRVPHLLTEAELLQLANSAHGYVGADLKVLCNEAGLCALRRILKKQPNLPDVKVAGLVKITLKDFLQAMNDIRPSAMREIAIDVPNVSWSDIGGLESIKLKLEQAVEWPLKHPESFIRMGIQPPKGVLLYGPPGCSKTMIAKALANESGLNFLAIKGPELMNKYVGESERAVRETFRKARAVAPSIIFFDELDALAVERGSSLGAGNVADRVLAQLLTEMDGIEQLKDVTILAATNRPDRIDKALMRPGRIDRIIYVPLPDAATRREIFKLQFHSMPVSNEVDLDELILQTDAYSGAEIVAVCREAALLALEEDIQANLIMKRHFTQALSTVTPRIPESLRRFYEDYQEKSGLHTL
UniProt Q08945, whole entry, looked up: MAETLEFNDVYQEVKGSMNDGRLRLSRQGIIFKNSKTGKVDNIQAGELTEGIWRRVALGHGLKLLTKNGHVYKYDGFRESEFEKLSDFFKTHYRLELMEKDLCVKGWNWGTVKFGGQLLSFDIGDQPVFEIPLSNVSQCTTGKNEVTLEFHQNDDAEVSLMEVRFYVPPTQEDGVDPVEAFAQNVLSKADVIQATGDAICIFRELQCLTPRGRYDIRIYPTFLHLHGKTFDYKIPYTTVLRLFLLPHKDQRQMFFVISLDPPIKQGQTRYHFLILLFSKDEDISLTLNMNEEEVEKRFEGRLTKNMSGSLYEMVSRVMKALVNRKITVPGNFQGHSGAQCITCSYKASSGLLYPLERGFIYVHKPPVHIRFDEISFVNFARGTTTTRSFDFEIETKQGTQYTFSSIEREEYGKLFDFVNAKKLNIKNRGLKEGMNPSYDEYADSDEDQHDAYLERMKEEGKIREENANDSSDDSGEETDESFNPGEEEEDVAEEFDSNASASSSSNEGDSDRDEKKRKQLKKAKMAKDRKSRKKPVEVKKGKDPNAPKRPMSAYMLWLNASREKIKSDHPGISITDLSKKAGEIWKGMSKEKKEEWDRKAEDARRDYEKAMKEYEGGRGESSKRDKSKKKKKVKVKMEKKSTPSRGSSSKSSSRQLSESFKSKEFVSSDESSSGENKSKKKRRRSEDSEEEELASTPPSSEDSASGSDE
UniProt Q16385, whole entry, looked up: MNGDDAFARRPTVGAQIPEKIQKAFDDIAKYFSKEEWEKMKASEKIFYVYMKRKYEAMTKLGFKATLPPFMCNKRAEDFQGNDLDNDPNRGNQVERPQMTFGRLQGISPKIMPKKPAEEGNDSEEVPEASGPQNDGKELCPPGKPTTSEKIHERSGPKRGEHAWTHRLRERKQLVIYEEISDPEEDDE

What follows are targets tested with CCN(CC)Cc1ccc2cc(COC(=O)Nc3ccc(C(=O)NO)cc3)ccc2c1 [givinostat] (assay: log2 fold change, soluble protein after heating vs DMSO (PISA); higher = thermal stabilisation; K562 cells, 10 uM, 30 min; active = over 0.2 and 3.5 SD of the protein, either way, in both replicates (recomputed)).
In short: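 Aliquots of K562 cells (2×10^6 cells/mL) treated with 10 μM compound for 30 min were heated for 3 min over 48°C-58°C. After pooling and extraction in PBS with 0.5% NP-40 at 4°C, soluble protein from a 21,000xg, 90 min spin was quantified by TMTpro 16plex LC-MS/MS with channel sums equalised. Thermal stability is expressed against control samples, from duplicates, as a log2 fold change.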

log2 fold change, inactive:
SPPL2B (UniProt Q8TCT7) 0.048
SRSF3 (UniProt P84103) -0.029
SRGAP2 (UniProt O75044) 0.008
SRGN (UniProt P10124) 0.023
SSR1 (UniProt P43307) -0.033
SPART (UniProt Q8N0X7) 0.001
SRSF11 (UniProt Q05519) 0.059
STIM1 (UniProt Q13586) 0.009
SRSF7 (UniProt Q16629) 0.059
STK25 (UniProt O00506) 0.056
SPHK1 isoform 2 (UniProt Q9NYA1) 0.054
SPG7 (UniProt Q9UQ90) -0.023
SPTA1 (UniProt P02549) 0.097
SPPL2A (UniProt Q8TCT8) 0.005
STAT1 (UniProt P42224) 0.144
SRP68 (UniProt Q9UHB9) 0.075
SSNA1 (UniProt O43805) -0.1
STAT5B (UniProt P51692) 0.145
STAU1 (UniProt O95793) 0.107
SPATA5 (UniProt Q8NB90) -0.012
SSRP1 (UniProt Q08945) 0.033
ST6GAL1 (UniProt P15907) -0.005
SSX2 (UniProt Q16385) -0.099
STAM (UniProt Q92783) -0.044

Looked up one by one from the list above (two):
log2 fold change, inactive:
STAT5B (UniProt P51692) 0.145
SRSF7 (UniProt Q16629) 0.059
